For one experiment, the target named is HOXB13 G84E-SFB (UniProt Q92826). Put plainly: affinity purification with mass spectrometry.
The target in a further experiment is HOXB13 WT-SFB (UniProt Q92826). Put plainly: affinity purification with mass spectrometry.

Chains of the proteins cited; added tags and fusions are not shown. Lines headed by an entry give the natural chain unless they say otherwise; changes in a name come on top.
UniProt Q92826: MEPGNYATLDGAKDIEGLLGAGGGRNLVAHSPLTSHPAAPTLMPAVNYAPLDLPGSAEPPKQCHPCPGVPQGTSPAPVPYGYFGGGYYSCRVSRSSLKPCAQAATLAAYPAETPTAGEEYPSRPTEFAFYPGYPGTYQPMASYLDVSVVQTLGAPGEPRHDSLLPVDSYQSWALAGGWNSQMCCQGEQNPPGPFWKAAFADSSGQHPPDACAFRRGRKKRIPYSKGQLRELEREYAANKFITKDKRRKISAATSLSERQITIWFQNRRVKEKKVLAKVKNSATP
UniProt P10275: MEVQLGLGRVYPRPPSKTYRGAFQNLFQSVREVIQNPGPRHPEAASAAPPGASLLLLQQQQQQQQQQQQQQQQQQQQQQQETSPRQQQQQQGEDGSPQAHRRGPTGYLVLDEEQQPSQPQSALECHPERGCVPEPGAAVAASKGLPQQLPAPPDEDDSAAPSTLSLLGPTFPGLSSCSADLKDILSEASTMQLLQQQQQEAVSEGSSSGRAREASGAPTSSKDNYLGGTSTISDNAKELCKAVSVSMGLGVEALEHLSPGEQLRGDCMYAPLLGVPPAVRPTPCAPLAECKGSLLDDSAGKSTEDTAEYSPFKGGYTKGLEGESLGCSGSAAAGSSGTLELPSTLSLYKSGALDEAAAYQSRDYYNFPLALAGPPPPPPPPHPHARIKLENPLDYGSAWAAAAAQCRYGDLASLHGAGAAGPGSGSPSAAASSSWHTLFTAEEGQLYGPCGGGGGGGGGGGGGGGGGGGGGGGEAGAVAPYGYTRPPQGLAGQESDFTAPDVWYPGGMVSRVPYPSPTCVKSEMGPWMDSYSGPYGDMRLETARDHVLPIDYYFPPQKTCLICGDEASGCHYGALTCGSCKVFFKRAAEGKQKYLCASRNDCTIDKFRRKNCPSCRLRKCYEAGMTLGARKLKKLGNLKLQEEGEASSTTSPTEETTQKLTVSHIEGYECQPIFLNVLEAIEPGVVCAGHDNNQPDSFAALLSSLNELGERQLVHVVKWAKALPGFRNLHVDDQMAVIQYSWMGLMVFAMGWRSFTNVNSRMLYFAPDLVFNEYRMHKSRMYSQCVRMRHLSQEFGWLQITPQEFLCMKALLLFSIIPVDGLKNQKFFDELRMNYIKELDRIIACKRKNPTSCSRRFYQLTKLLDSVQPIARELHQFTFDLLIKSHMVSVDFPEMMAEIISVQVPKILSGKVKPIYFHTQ
UniProt O15379: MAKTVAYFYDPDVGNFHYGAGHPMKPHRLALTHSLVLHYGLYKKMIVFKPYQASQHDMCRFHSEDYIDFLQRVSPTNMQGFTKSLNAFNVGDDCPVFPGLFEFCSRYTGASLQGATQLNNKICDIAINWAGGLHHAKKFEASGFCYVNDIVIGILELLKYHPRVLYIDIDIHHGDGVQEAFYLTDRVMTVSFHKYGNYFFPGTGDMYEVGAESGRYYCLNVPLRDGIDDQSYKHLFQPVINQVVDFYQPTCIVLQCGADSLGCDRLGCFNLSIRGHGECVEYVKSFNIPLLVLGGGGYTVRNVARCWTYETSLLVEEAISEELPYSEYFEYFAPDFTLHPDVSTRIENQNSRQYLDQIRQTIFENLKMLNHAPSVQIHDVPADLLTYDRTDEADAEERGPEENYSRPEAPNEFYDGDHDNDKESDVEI
UniProt P23769: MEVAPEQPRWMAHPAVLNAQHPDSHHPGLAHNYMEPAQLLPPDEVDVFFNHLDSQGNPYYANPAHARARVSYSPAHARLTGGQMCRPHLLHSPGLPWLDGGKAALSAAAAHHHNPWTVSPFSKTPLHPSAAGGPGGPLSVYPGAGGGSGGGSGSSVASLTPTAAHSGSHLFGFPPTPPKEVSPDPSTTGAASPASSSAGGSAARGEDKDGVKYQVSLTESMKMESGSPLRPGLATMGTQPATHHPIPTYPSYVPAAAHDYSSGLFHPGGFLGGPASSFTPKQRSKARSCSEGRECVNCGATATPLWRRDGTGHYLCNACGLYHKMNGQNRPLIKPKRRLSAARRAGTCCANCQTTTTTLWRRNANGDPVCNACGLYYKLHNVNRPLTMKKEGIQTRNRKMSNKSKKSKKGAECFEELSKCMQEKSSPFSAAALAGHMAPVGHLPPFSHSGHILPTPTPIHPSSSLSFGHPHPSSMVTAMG
UniProt Q13547: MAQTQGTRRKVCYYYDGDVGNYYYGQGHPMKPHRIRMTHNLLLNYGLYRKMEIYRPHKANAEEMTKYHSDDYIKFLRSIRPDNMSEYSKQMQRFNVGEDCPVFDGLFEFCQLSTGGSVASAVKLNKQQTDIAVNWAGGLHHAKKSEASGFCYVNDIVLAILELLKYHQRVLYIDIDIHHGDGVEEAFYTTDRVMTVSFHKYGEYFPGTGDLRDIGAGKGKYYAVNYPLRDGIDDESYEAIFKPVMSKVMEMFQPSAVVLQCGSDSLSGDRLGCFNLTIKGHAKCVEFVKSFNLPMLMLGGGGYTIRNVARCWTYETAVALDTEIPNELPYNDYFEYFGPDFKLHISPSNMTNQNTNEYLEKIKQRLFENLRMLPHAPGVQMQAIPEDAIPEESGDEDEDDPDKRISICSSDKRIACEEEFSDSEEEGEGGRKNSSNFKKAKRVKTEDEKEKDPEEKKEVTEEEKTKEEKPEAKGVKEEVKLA

No constants are given. Whether binding was seen depends on the method and setting. In cells and extracts the contact can be indirect. These calls come from enrichment with a bait or labelling near it, and not all partners need be listed.

In the case of “androgen receptor (AR) (from UniProt P10275 1-920)”, the binding entry with HOXB13 G84E-SFB and with HOXB13 WT-SFB was “binds” in each case.

Take “HDAC3 (from UniProt O15379 1-428) (enzyme)”: in the experiment with HOXB13 WT-SFB, the binding entry is given as “binds”. With GATA2 (from UniProt P23769 1-480), the binding result with HOXB13 G84E-SFB and in the experiment with HOXB13 WT-SFB was “binds” throughout. For the molecule “HDAC1 (from UniProt Q13547 1-482) (enzyme)”, the binding result with HOXB13 WT-SFB is listed as “binds”.

B1: TBL1X (protein, UniProt O60907 1-577)
chain: MTELAGASSSCCHRPAGRGAMQSVLHHFQRLRGREGGSHFINTSSPRGEAKMSITSDEVNFLVYRYLQESGFSHSAFTFGIESHISQSNINGTLVPPAALISILQKGLQYVEAEISINEDGTVFDGRPIESLSLIDAVMPDVVQTRQQAFREKLAQQQASAAAAAAAATAAATAATTTSAGVSHQNPSKNREATVNGEENRAHSVNNHAKPMEIDGEVEIPSSKATVLRGHESEVFICAWNPVSDLLASGSGDSTARIWNLNENSNGGSTQLVLRHCIREGGHDVPSNKDVTSLDWNTNGTLLATGSYDGFARIWTEDGNLASTLGQHKGPIFALKWNRKGNYILSAGVDKTTIIWDAHTGEAKQQFPFHSAPALDVDWQNNTTFASCSTDMCIHVCRLGCDRPVKTFQGHTNEVNAIKWDPSGMLLASCSDDMTLKIWSMKQEVCIHDLQAHNKEIYTIKWSPTGPATSNPNSNIMLASASFDSTVRLWDIERGVCTHTLTKHQEPVYSVAFSPDGKYLASGSFDKCVHIWNTQSGNLVHSYRGTGGIFEVCWNARGDKVGASASDGSVCVLDLRK
Turning to B1, in the experiment with HOXB13 WT-SFB, the binding result was “binds”.

B2: FOXA1 (protein, UniProt P55317 1-472)
chain: MLGTVKMEGHETSDWNSYYADTQEAYSSVPVSNMNSGLGSMNSMNTYMTMNTMTTSGNMTPASFNMSYANPGLGAGLSPGAVAGMPGGSAGAMNSMTAAGVTAMGTALSPSGMGAMGAQQAASMNGLGPYAAAMNPCMSPMAYAPSNLGRSRAGGGGDAKTFKRSYPHAKPPYSYISLITMAIQQAPSKMLTLSEIYQWIMDLFPYYRQNQQRWQNSIRHSLSFNDCFVKVARSPDKPGKGSYWTLHPDSGNMFENGCYLRRQKRFKCEKQPGAGGGGGSGSGGSGAKGGPESRKDPSGASNPSADSPLHRGVHGKTGQLEGAPAPGPAASPQTLDHSGATATGGASELKTPASSTAPPISSGPGALASVPASHPAHGLAPHESQLHLKGDPHYSFNHPFSINNLMSSSEQQHKLDFKAYEQALQYSPYGSTLPASLPLGSASVTTRSPIEPSALEPAYYQGVYSRPVLNTS
In the case of B2, the binding entry with HOXB13 G84E-SFB and with HOXB13 WT-SFB was “binds” each time.

The record behind these values is article doi:10.1101/2021.10.04.463081.
